Measured data: PubChem BioAssay AID1053208 (Peter MacCallum Cancer Centre, 2014)
Test: 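Synthetic lethal interactions between gene loss and doxorubicin in osteosarcoma cells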 (primary screen). System: mouse osteosarcoma cells, early-passage culture from an engineered mouse model of fibroblastic bone tumour. Reagents: siRNA pool against mouse genes, 40 nM. Duration: about 120 h (48 h before drug, then 72 h with drug). Challenge: doxorubicin 100 nM for 72 h, roughly 30-40% inhibitory dose. Read-out: 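Viability read as ATP luminescence after 72 h of 100 nM doxorubicin or none, duplicate wells averaged, scaled to non-targeting siRNA, then expressed as robust z-scores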. Scale: viability z-score with doxorubicin: higher = more viable cells under doxorubicin; viability z-score without drug: higher = more viable cells with knock-down alone. Rule for the call: 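a pool counts as active when its viability z-score with doxorubicin is -2 or below and its z-score without drug lies between -2 and 2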.
Here is one part, drawn at random, of about 17,000 deposited reagents. Over the whole deposit, 788 (4.7%) got an active call. 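Calls rest on z-score classes alone; an extra cut-off of viability at most 70% of control was not applied to them.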 Further read-outs or replicates are left out here. No sequences are given here.

Hoxb7 (homeobox B7): combined z-score class = no change with or without drug; viability z-score with doxorubicin = -0.67; viability z-score without drug = 0.17; call = inactive
Vmn1r50 (vomeronasal 1 receptor 50): combined z-score class = no change with or without drug; viability z-score with doxorubicin = 0.45; viability z-score without drug = -1.69; call = inactive
Tas2r109 (taste receptor, type 2, member 109): combined z-score class = no change with or without drug; viability z-score with doxorubicin = 1.91; viability z-score without drug = 1.18; call = inactive
Nutf2 (nuclear transport factor 2): combined z-score class = no change with or without drug; viability z-score with doxorubicin = 1.12; viability z-score without drug = -0.17; call = inactive
Klf17 (Kruppel-like transcription factor 17): combined z-score class = no change with or without drug; viability z-score with doxorubicin = -0.34; viability z-score without drug = 1.52; call = inactive
Adamts2 (ADAM metallopeptidase with thrombospondin type 1 motif 2): combined z-score class = no change with or without drug; viability z-score with doxorubicin = 0; viability z-score without drug = 0.51; call = inactive
Galk2 (galactokinase 2): combined z-score class = no change with or without drug; viability z-score with doxorubicin = -1.01; viability z-score without drug = -0.34; call = inactive
Fbxw13 (F-box and WD-40 domain protein 13): combined z-score class = no change with or without drug; viability z-score with doxorubicin = -1.12; viability z-score without drug = 0.84; call = inactive
Extl2 (exostosin-like glycosyltransferase 2): combined z-score class = no change with or without drug; viability z-score with doxorubicin = 1.46; viability z-score without drug = 0.67; call = inactive
Dxo (decapping exoribonuclease): combined z-score class = no change with or without drug; viability z-score with doxorubicin = 0; viability z-score without drug = 0.51; call = inactive
Disp2 (dispatched RND transporter family member 2): combined z-score class = no change with or without drug; viability z-score with doxorubicin = -0.22; viability z-score without drug = -0.17; call = inactive
Cyp4a12a (cytochrome P450, family 4, subfamily a, polypeptide 12a): combined z-score class = no change with or without drug; viability z-score with doxorubicin = -0.9; viability z-score without drug = -1.18; call = inactive
Slc46a2: combined z-score class = no change with or without drug; viability z-score with doxorubicin = 0.56; viability z-score without drug = -0.17; call = inactive
Hes7 (hes family bHLH transcription factor 7): combined z-score class = no change with or without drug; viability z-score with doxorubicin = -0.9; viability z-score without drug = -0.34; call = inactive
Defb3 (defensin beta 3): combined z-score class = no change with or without drug; viability z-score with doxorubicin = -0.22; viability z-score without drug = 0.17; call = inactive
Acadm (acyl-Coenzyme A dehydrogenase, medium chain): combined z-score class = no change with or without drug; viability z-score with doxorubicin = 1.24; viability z-score without drug = -0.17; call = inactive
Cep104 (centrosomal protein 104): combined z-score class = no change with or without drug; viability z-score with doxorubicin = -1.12; viability z-score without drug = -0.17; call = inactive
Dpt (dermatopontin): combined z-score class = no change with or without drug; viability z-score with doxorubicin = 1.12; viability z-score without drug = 0.84; call = inactive
Tfap2b (transcription factor AP-2 beta): combined z-score class = no change with or without drug; viability z-score with doxorubicin = 0.22; viability z-score without drug = 0.84; call = inactive
Slit1 (slit guidance ligand 1): combined z-score class = high cell count without drug only; viability z-score with doxorubicin = 1.12; viability z-score without drug = 2.19; call = inactive
Eps15l1 (EGFR pathway substrate 15-like 1): combined z-score class = no change with or without drug; viability z-score with doxorubicin = -0.22; viability z-score without drug = 0.84; call = inactive
Nnat (neuronatin): combined z-score class = no change with or without drug; viability z-score with doxorubicin = -0.67; viability z-score without drug = -1.18; call = inactive
Arid3a (AT-rich interaction domain 3A): combined z-score class = no change with or without drug; viability z-score with doxorubicin = -0.67; viability z-score without drug = 0.17; call = inactive
Or51ag1 (olfactory receptor family 51 subfamily AG member 1): combined z-score class = no change with or without drug; viability z-score with doxorubicin = -0.79; viability z-score without drug = -1.69; call = inactive
Ppm1b (protein phosphatase 1B, magnesium dependent, beta isoform): combined z-score class = no change with or without drug; viability z-score with doxorubicin = -0.11; viability z-score without drug = -1.18; call = inactive
Nat8f4 (N-acetyltransferase 8 (GCN5-related) family member 4): combined z-score class = no change with or without drug; viability z-score with doxorubicin = 1.12; viability z-score without drug = 0.84; call = inactive
Ankrd48 (ankyrin repeat domain 48): combined z-score class = no change with or without drug; viability z-score with doxorubicin = -0.22; viability z-score without drug = -0.17; call = inactive
Ints1 (integrator complex subunit 1): combined z-score class = low cell count without drug only; viability z-score with doxorubicin = -1.57; viability z-score without drug = -2.19; call = inactive
Fmo1 (flavin containing monooxygenase 1): combined z-score class = no change with or without drug; viability z-score with doxorubicin = -0.9; viability z-score without drug = 0.67; call = inactive
Tdrd3 (tudor domain containing 3): combined z-score class = no change with or without drug; viability z-score with doxorubicin = -0.56; viability z-score without drug = -0.51; call = inactive
Cited2: combined z-score class = no change with or without drug; viability z-score with doxorubicin = -1.46; viability z-score without drug = -0.84; call = inactive
Slc25a36: combined z-score class = no change with or without drug; viability z-score with doxorubicin = -0.45; viability z-score without drug = 0.17; call = inactive
Spata31d1d (spermatogenesis associated 31 subfamily D, member 1D): combined z-score class = low cell count without drug only; viability z-score with doxorubicin = 0; viability z-score without drug = -2.19; call = inactive
Slc35e1: combined z-score class = no change with or without drug; viability z-score with doxorubicin = -0.45; viability z-score without drug = 0.51; call = inactive
Cnksr1 (connector enhancer of kinase suppressor of Ras 1): combined z-score class = no change with or without drug; viability z-score with doxorubicin = -1.12; viability z-score without drug = -0.17; call = inactive
Slc34a3: combined z-score class = no change with or without drug; viability z-score with doxorubicin = -0.45; viability z-score without drug = -1.18; call = inactive
